From patent publication US20250093315A1, “MOLECULAR SENSORS, METHOD AND KIT FOR THE DETECTION AND QUANTIFICATION OF CARBON DIOXIDE” (ETH Zurich, priority 2022, published 2025)

Key:
[1] = CO2/N2 gas mixtures bubbled into sensor solution
From the text: Gas mixtures with different ratios of CO2/N2 were bubbled into solutions containing (I1) at a constant volume and rate (governed by a mass flow controller). […] It could sense a mixture of 1.5% CO2 with a signal to noise of ˜20. Both polar and nonpolar solvents have been used, including water, boding well for a wide range of interdisciplinary applications, without diverging results.

[2] = Fluorescent turn-on response in presence and absence of CO2 (DMSO)
From the text: Compound (I1) was solubilised in DMSO and involved in carbon dioxide detection experiment, resulting in the compound of formula (I1b).
The compound (I1) was placed in the presence and absence of CO2 (FIG. 2). […] The turn-on response was saturated at a signal-to-noise ratio of 260.

CCN(CC)c1ccc2c(NCc3ccccc3N=P(c3ccccc3)(c3ccccc3)c3ccccc3)cc(=O)oc2c1 [Compound (I1)]
response to CO2/N2 ratio ([1]; different ratios of CO2/N2, constant volume and rate): CO2 dose-dependent response
signal to noise ([1]; mixture of 1.5% CO2 in CO2/N2): ~20
fluorescent response in the absence of carbon dioxide ([2]; absence of carbon dioxide): negligible fluorescent response
signal-to-noise ratio at saturation of the turn-on response ([2]; upon bubbling carbon dioxide, emission 455 nm): 260
maximal emission ([2]; upon bubbling carbon dioxide, identical to spectra of (I1b)): 455 nm
